Values quoted from earlier work in patent US5612329A (priority 1995, dated 1997).
At least one compound was matched to its structure with a doubt left.

Test system: putrescine uptake
Details: compared with N-(4-aminobutyl)aziridine; cited from earlier work

SMILES: C(CCN1CC1)CN1CC1 [N,N'-bisaziridinyl-1,4-diaminobutane]
- inhibition of putrescine uptake: much less effective inhibitor of putrescine uptake than N-(4-aminobutyl)aziridine
